From the supplement of paper PMC8728848
This is one part of the list.

Assays:
Assay in all cases: glycan array binding signal (z-score within array); higher = stronger binding
Details in all cases: glycan notation: IUPAC condensed, linker removed
[1] = biological target: Gal(b1-4)GlcNAc(b1-2)[Gal(b1-4)GlcNAc(b1-4)]Man(a1-3)[Gal(b1-4)GlcNAc(b1-2)Man(a1-6)]Man(b1-4)GlcNAc(b1-4)GlcNAc
Method in brief: (§1)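 Columns mapping to the same glycan were averaged after glycan names were converted to IUPAC-condensed notation. The data come from 3228 arrays in the Consortium for Functional Glycomics database, limited to those with an available protein sequence. Binding is reported as a within-array Z-score averaged across arrays of one protein sequence and across linkers.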

[2] = biological target: Gal(b1-4)GlcNAc(b1-2)[Gal(b1-4)GlcNAc(b1-4)]Man(a1-3)[Gal(b1-4)GlcNAc(b1-2)[Gal(b1-4)GlcNAc(b1-6)]Man(a1-6)]Man(b1-4)GlcNAc(b1-4)GlcNAc
Method in brief: as §1

[3] = biological target: Gal(b1-4)GlcNAc(b1-2)[Gal(b1-4)GlcNAc(b1-4)]Man(a1-3)[GlcNAc(b1-4)][Gal(b1-4)GlcNAc(b1-2)Man(a1-6)]Man(b1-4)GlcNAc(b1-4)GlcNAc
Method in brief: as §1

[4] = biological target: Gal(b1-4)GlcNAc(b1-2)[Gal(b1-4)GlcNAc(b1-4)]Man(a1-3)[GlcNAc(b1-4)][Gal(b1-4)GlcNAc(b1-2)[Gal(b1-4)GlcNAc(b1-6)]Man(a1-6)]Man(b1-4)GlcNAc(b1-4)GlcNAc
Method in brief: as §1

[5] = biological target: Gal(b1-4)GlcNAc(b1-2)[Gal(b1-4)GlcNAc(b1-6)]Man(a1-6)[Gal(b1-4)GlcNAc(b1-2)Man(a1-3)]Man(b1-4)GlcNAc(b1-4)GlcNAc
Method in brief: as §1

[6] = biological target: Gal(b1-4)GlcNAc(b1-2)[Gal(b1-4)GlcNAc(b1-6)]Man(a1-6)[Gal(b1-4)GlcNAc(b1-2)Man(a1-3)]Man(b1-4)GlcNAc(b1-4)[Fuc(a1-6)]GlcNAc
Method in brief: as §1

[7] = biological target: Gal(b1-4)GlcNAc(b1-2)[Gal(b1-4)GlcNAc(b1-6)]Man(a1-6)[GlcNAc(b1-4)][Gal(b1-4)GlcNAc(b1-2)Man(a1-3)]Man(b1-4)GlcNAc(b1-4)GlcNAc
Method in brief: as §1

[8] = biological target: Gal(b1-4)GlcNAc(b1-2)[Gal(b1-4)GlcNAc(b1-6)]Man(a1-6)[GlcNAc(b1-4)][Gal(b1-4)GlcNAc(b1-2)[Gal(b1-4)GlcNAc(b1-4)]Man(a1-3)]Man(b1-4)GlcNAc(b1-4)[Fuc(a1-6)]GlcNAc
Method in brief: as §1

[9] = biological target: Gal(b1-4)GlcNAc(b1-3)Gal(b1-3)GalNAc
Method in brief: as §1

[10] = biological target: Gal(b1-4)GlcNAc(b1-3)Gal(b1-3)GlcNAc
Method in brief: as §1

[11] = biological target: Gal(b1-4)GlcNAc(b1-3)Gal(b1-4)Glc
Method in brief: as §1

[12] = biological target: Gal(b1-4)GlcNAc(b1-3)Gal(b1-4)GlcNAc
Method in brief: as §1

[13] = biological target: Gal(b1-4)GlcNAc(b1-3)Gal(b1-4)GlcNAc(b1-2)Man(a1-3)[Gal(b1-4)GlcNAc(b1-3)Gal(b1-4)GlcNAc(b1-2)Man(a1-6)]Man(b1-4)GlcNAc(b1-4)GlcNAc
Method in brief: as §1

[14] = biological target: Gal(b1-4)GlcNAc(b1-3)Gal(b1-4)GlcNAc(b1-2)Man(a1-3)[Gal(b1-4)GlcNAc(b1-3)Gal(b1-4)GlcNAc(b1-2)Man(a1-6)]Man(b1-4)GlcNAc(b1-4)[Fuc(a1-6)]GlcNAc
Method in brief: as §1

[15] = biological target: Gal(b1-4)GlcNAc(b1-3)Gal(b1-4)GlcNAc(b1-2)[Gal(b1-4)GlcNAc(b1-3)Gal(b1-4)GlcNAc(b1-6)]Man(a1-6)[Gal(b1-4)GlcNAc(b1-3)Gal(b1-4)GlcNAc(b1-2)Man(a1-3)]Man(b1-4)GlcNAc(b1-4)GlcNAc
Method in brief: as §1

[16] = biological target: Gal(b1-4)GlcNAc(b1-3)Gal(b1-4)GlcNAc(b1-2)[Gal(b1-4)GlcNAc(b1-3)Gal(b1-4)GlcNAc(b1-6)]Man(a1-6)[Gal(b1-4)GlcNAc(b1-3)Gal(b1-4)GlcNAc(b1-2)Man(a1-3)]Man(b1-4)GlcNAc(b1-4)[Fuc(a1-6)]GlcNAc
Method in brief: as §1

[17] = biological target: Gal(b1-4)GlcNAc(b1-3)Gal(b1-4)GlcNAc(b1-3)Gal(b1-4)GlcNAc
Method in brief: as §1

[18] = biological target: Gal(b1-4)GlcNAc(b1-3)Gal(b1-4)GlcNAc(b1-3)Gal(b1-4)GlcNAc(b1-2)Man(a1-3)[Gal(b1-4)GlcNAc(b1-3)Gal(b1-4)GlcNAc(b1-3)Gal(b1-4)GlcNAc(b1-2)Man(a1-6)]Man(b1-4)GlcNAc(b1-4)GlcNAc
Method in brief: as §1

[19] = biological target: Gal(b1-4)GlcNAc(b1-3)Gal(b1-4)GlcNAc(b1-3)Gal(b1-4)GlcNAc(b1-2)Man(a1-3)[Gal(b1-4)GlcNAc(b1-3)Gal(b1-4)GlcNAc(b1-3)Gal(b1-4)GlcNAc(b1-2)Man(a1-6)]Man(b1-4)GlcNAc(b1-4)[Fuc(a1-6)]GlcNAc
Method in brief: as §1

[20] = biological target: Gal(b1-4)GlcNAc(b1-3)Gal(b1-4)GlcNAc(b1-3)Gal(b1-4)GlcNAc(b1-2)[Gal(b1-4)GlcNAc(b1-3)Gal(b1-4)GlcNAc(b1-3)Gal(b1-4)GlcNAc(b1-6)]Man(a1-6)[Gal(b1-4)GlcNAc(b1-3)Gal(b1-4)GlcNAc(b1-3)Gal(b1-4)GlcNAc(b1-2)Man(a1-3)]Man(b1-4)GlcNAc(b1-4)[Fuc(a1-6)]GlcNAc
Method in brief: as §1

[21] = biological target: Gal(b1-4)GlcNAc(b1-3)Gal(b1-4)GlcNAc(b1-3)Gal(b1-4)GlcNAc(b1-3)Gal(b1-4)GlcNAc(b1-2)Man(a1-3)[Gal(b1-4)GlcNAc(b1-3)Gal(b1-4)GlcNAc(b1-3)Gal(b1-4)GlcNAc(b1-3)Gal(b1-4)GlcNAc(b1-2)Man(a1-6)]Man(b1-4)GlcNAc(b1-4)GlcNAc
Method in brief: as §1

[22] = biological target: Gal(b1-4)GlcNAc(b1-3)Gal(b1-4)GlcNAc(b1-3)Gal(b1-4)GlcNAc(b1-3)Gal(b1-4)GlcNAc(b1-2)Man(a1-3)[Gal(b1-4)GlcNAc(b1-3)Gal(b1-4)GlcNAc(b1-3)Gal(b1-4)GlcNAc(b1-3)Gal(b1-4)GlcNAc(b1-2)Man(a1-6)]Man(b1-4)GlcNAc(b1-4)[Fuc(a1-6)]GlcNAc
Method in brief: as §1

B1: Pbx1CASH domain (Cryptococcus neoformans) (protein)
chain: MDETKPLWGNPRADGISLACKDSIVERNVVYDATDGAIVLFGSAGSTVKNNHVYARTRVILGGINLVDYEPWDGDYTNVKVHHNHLYALGRYFKVGIVIGPASWSDDTESVVHSASVTDNEFSGGYWGYGIVVASAKNFEVLRNKVIWDGEQGVARFSGVPGS
- glycan array binding signal (z-score) [1]: -0.846
- glycan array binding signal (z-score) [2]: -0.024
- glycan array binding signal (z-score) [3]: 0.488
- glycan array binding signal (z-score) [4]: 0.939
- glycan array binding signal (z-score) [5]: 0.543
- glycan array binding signal (z-score) [6]: -0.218
- glycan array binding signal (z-score) [7]: 0.234
- glycan array binding signal (z-score) [8]: 0.375
- glycan array binding signal (z-score) [9]: 0.935
- glycan array binding signal (z-score) [10]: -0.387
- glycan array binding signal (z-score) [11]: 0.559
- glycan array binding signal (z-score) [12]: -0.081
- glycan array binding signal (z-score) [13]: 5.46
- glycan array binding signal (z-score) [14]: 1.12
- glycan array binding signal (z-score) [15]: 2.22
- glycan array binding signal (z-score) [16]: 1.57
- glycan array binding signal (z-score) [17]: 0.478
- glycan array binding signal (z-score) [18]: 3.17
- glycan array binding signal (z-score) [19]: 1
- glycan array binding signal (z-score) [20]: 1.03
- glycan array binding signal (z-score) [21]: -0.377
- glycan array binding signal (z-score) [22]: 0.544
